Experimental data: PubChem BioAssay AID1224828 (NIAID, 2016)
Screen: 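Find genes required for NF-kappaB p65 moving into the nucleus after LPS in mouse macrophages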 (primary screen). Cell system: mouse RAW264.7 G9 macrophage reporter cells (GFP-p65, Tnf promoter-mCherry). Reagents: siRNA pool against mouse genes, 100 nM. Timing: 2 days siRNA transfection, then 40 min LPS before fixation. Treatment: LPS (Salmonella minnesota R595) at 10 ng/ml. Measured: 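Imaged p65 nuclear translocation ratio, normalised to the plate median, converted to robust z-scores and averaged across two replicates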. Direction: p65 translocation robust z-score: higher = more nuclear NF-kappaB p65 after LPS than the plate median; nuclear/cytoplasmic p65 ratio: higher = more nuclear NF-kappaB p65. Rule for the call: 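Active if robust z is above 3.3 (negative regulators) or below -1.56, the Tlr4 control median (positive regulators); activity score 50 or more; control wells not called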. Meaning of the calls: active = hit (p65 shift raised or lowered); inactive = no clear change.
This is an unselected part of about 17,000 deposited reagents. 762 of them (4.5%) were called active. 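Active calls include both raised and lowered p65 entry, mostly lowered; wells with fewer than 50 cells lack a z-score.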 Raw values vary from plate to plate and are shown uncorrected. Unmarked entries are inactive.

For Psg19 (pregnancy specific beta-1-glycoprotein 19), the entry reads nuclear/cytoplasmic p65 ratio, rep 1 = 1.32; nuclear/cytoplasmic p65 ratio, rep 2 = 1.11; low cell count flag fewer than 50 cells per well; well left out of scoring. Zfp128 (zinc finger protein 128) scored p65 translocation robust z-score 0.45; nuclear/cytoplasmic p65 ratio, rep 1 = 1.46; nuclear/cytoplasmic p65 ratio, rep 2 = 1.31; low cell count flag enough cells to score. Against Tmem39a (transmembrane protein 39a), the values are p65 translocation robust z-score 0.65; nuclear/cytoplasmic p65 ratio, rep 1 = 1.48; nuclear/cytoplasmic p65 ratio, rep 2 = 1.56; low cell count flag enough cells to score. Ogt gave p65 translocation robust z-score 0.52; nuclear/cytoplasmic p65 ratio, rep 1 = 1.39; nuclear/cytoplasmic p65 ratio, rep 2 = 1.46; low cell count flag enough cells to score. Scnn1a (sodium channel, nonvoltage-gated 1 alpha) showed p65 translocation robust z-score 0.59; nuclear/cytoplasmic p65 ratio, rep 1 = 1.49; nuclear/cytoplasmic p65 ratio, rep 2 = 1.79; low cell count flag enough cells to score. Against Snx18 (sorting nexin 18) the deposit lists nuclear/cytoplasmic p65 ratio, rep 1 = 1.7; nuclear/cytoplasmic p65 ratio, rep 2 = 1.18; low cell count flag fewer than 50 cells per well; well left out of scoring.

Depletion of Vmn1r195 (vomeronasal 1 receptor 195) gave: p65 translocation robust z-score -1.01; nuclear/cytoplasmic p65 ratio, rep 1 = 1.29; nuclear/cytoplasmic p65 ratio, rep 2 = 1.11; low cell count flag enough cells to score. With knock-down of Samd14 (sterile alpha motif domain containing 14) the results were p65 translocation robust z-score -1.67 (active); nuclear/cytoplasmic p65 ratio, rep 1 = 1.36; nuclear/cytoplasmic p65 ratio, rep 2 = 1.53; low cell count flag enough cells to score. With knock-down of Or9s27 (olfactory receptor family 9 subfamily S member 27), the screen gave p65 translocation robust z-score 1.1; nuclear/cytoplasmic p65 ratio, rep 1 = 1.79; nuclear/cytoplasmic p65 ratio, rep 2 = 1.55; low cell count flag enough cells to score. After knock-down of Or10h28 (olfactory receptor family 10 subfamily H member 28), the screen gave p65 translocation robust z-score 0.85; nuclear/cytoplasmic p65 ratio, rep 1 = 1.56; nuclear/cytoplasmic p65 ratio, rep 2 = 1.32; low cell count flag enough cells to score. Ppib (peptidylprolyl isomerase B) scored p65 translocation robust z-score 0.39; nuclear/cytoplasmic p65 ratio, rep 1 = 1.43; nuclear/cytoplasmic p65 ratio, rep 2 = 1.27; low cell count flag enough cells to score. Slc36a2 gave nuclear/cytoplasmic p65 ratio, rep 1 = 1.65; nuclear/cytoplasmic p65 ratio, rep 2 = 1.29; low cell count flag fewer than 50 cells per well; well left out of scoring.

Depletion of Lilrb4b gave: p65 translocation robust z-score 1.03; nuclear/cytoplasmic p65 ratio, rep 1 = 1.51; nuclear/cytoplasmic p65 ratio, rep 2 = 1.57; low cell count flag enough cells to score. Tas2r130 (taste receptor, type 2, member 130) gave p65 translocation robust z-score 0.21; nuclear/cytoplasmic p65 ratio, rep 1 = 1.4; nuclear/cytoplasmic p65 ratio, rep 2 = 1.76; low cell count flag enough cells to score.

In a second layout: 2 of the entries above.
gene knocked down	p65 translocation robust z-score	nuclear/cytoplasmic p65 ratio, rep 1	nuclear/cytoplasmic p65 ratio, rep 2	low cell count flag
Or9s27 (olfactory receptor family 9 subfamily S member 27)	1.1	1.79	1.55	enough cells to score
Or10h28 (olfactory receptor family 10 subfamily H member 28)	0.85	1.56	1.32	enough cells to score

Additional records:
Silencing of Dact2 (dishevelled-binding antagonist of beta-catenin 2) resulted in: p65 translocation robust z-score -1.6 (active); nuclear/cytoplasmic p65 ratio, rep 1 = 1.33; nuclear/cytoplasmic p65 ratio, rep 2 = 1.32; low cell count flag enough cells to score. After knock-down of Drc4 (dynein regulatory complex subunit 4), the record shows p65 translocation robust z-score 0.25; nuclear/cytoplasmic p65 ratio, rep 1 = 1.43; nuclear/cytoplasmic p65 ratio, rep 2 = 1.44; low cell count flag enough cells to score. Knock-down of Ncf1 (neutrophil cytosolic factor 1) resulted in: p65 translocation robust z-score -1.09; nuclear/cytoplasmic p65 ratio, rep 1 = 1.3; nuclear/cytoplasmic p65 ratio, rep 2 = 1.21; low cell count flag enough cells to score. Against Stk17b (serine/threonine kinase 17b (apoptosis-inducing)), the entry reads p65 translocation robust z-score 0.68; nuclear/cytoplasmic p65 ratio, rep 1 = 2.34; nuclear/cytoplasmic p65 ratio, rep 2 = 1.47; low cell count flag enough cells to score. Vrk3 (vaccinia related kinase 3) scored p65 translocation robust z-score -0.89; nuclear/cytoplasmic p65 ratio, rep 1 = 1.4; nuclear/cytoplasmic p65 ratio, rep 2 = 1.27; low cell count flag enough cells to score. Silencing of Plxna4 (plexin A4) resulted in: nuclear/cytoplasmic p65 ratio, rep 1 = 1.19; nuclear/cytoplasmic p65 ratio, rep 2 = 1.62; low cell count flag fewer than 50 cells per well; well left out of scoring.

For Spin4 (spindlin family, member 4), the entry reads p65 translocation robust z-score 0.76; nuclear/cytoplasmic p65 ratio, rep 1 = 1.59; nuclear/cytoplasmic p65 ratio, rep 2 = 1.59; low cell count flag enough cells to score.
